Screening data, single-dose tests

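Phenotypic screen: M. tuberculosis growth, cholesterol and DPPC medium, 4 days; the read-out is not stated. Compounds at 500 µM. The record gives no direction; compounds that gave an IC50 in retests scored well above the rest, so higher reads as more growth inhibition. Size under these conditions: about 18,000 compounds, about 900 of them at 50% or above in at least one test.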

Values are the deposited “Percent Effect”, in %.
The controls that fix the scale are not given in the record; negative values are as filed.
This is an unselected part of the compounds tested.

| Compound | effect |
|---|---|
| `CNCCNC(=O)C(C)C` | 20.41% |
| `Cc1cccn2cc(CS(=O)(=O)CCCC#N)nc12` | -1.287% |
| `CC(C)[C@H]1CN(C(=O)c2cnc3c(c2)CCC3)C[C@@H]1N` | 2.226% |
| `Cn1cc(Br)c(=O)c(NC(=O)c2cccc(C#N)c2)c1` | -8.72% |
| `OC(CNC1CC1)c1ccc(F)cc1` (stereo not given) | 0.7814% |
| `CNC(=O)NCc1ccc(CS(=O)(=O)NC)cc1` | 4.186% |
| `CN(CC(=O)N1CCNC1=O)Cc1ccco1` | -7.608% |
| `CC(C)c1ccc(C(=O)N2CCC(O)CC2)cc1` | 18.6% |
| `CC(C)c1nnc2n1CC(N)CC2` (stereo not given) | -13.3% |
| `Cc1ccnc(NS(=O)(=O)c2cccs2)c1` | 23.13% |
| `NC(=O)OCC(N)Cc1ccccc1` (stereo not given) | 9.029% |
| `CN(CC(=O)Nc1nccs1)C(=O)c1ccccc1` | 0.2565% |
| `c1cc2c(cc1CN1CCCCC1)CNCCO2` | -17.77% |
| `CCC(CC)c1cc(N)on1` | 19.76% |
| `CC(C)CNC(=O)CC1Nc2ccccc2NC1=O` (stereo not given) | 16.46% |
| `CC(C)n1ccnc1CN(C)CC(C)(C)S(C)(=O)=O` | 5.716% |
| `CN(CCCN)C(=O)Cc1ccccc1Br` | 0.5427% |
| `O=C(NCC1CCOC1)c1ccoc1C(F)(F)F` (stereo not given) | 2.751% |
| `Cc1cc(C)n(CC(=O)NCc2ccc(F)cc2)n1` | 33.16% |
| `CNCc1csc(C(C)(C)O)n1` | 0.8545% |
| `OCCNCc1ccc(F)cc1C(F)(F)F` | 2.793% |
| `O=C1NCCN1CC1CCCN1` (stereo not given) | -2.24% |
| `COc1ccc(Br)cc1CNCC1CCS(=O)(=O)C1` (stereo not given) | 2.366% |
| `Cc1cc(C(=O)OC(C)c2ccccn2)cc(O)n1` (stereo not given) | -28.55% |
| `Cc1c(C(=O)Nc2ccc(F)c(C(N)=O)c2)cnn1C` | 6.233% |
| `COCC1CCCN(Cc2nnc(C(C)C)o2)C1` (stereo not given) | 24.72% |
| `CN1CCC(NCCC2CCCO2)CC1` (stereo not given) | -8.382% |
| `O=C(CNc1ccncc1Cl)NCc1ccco1` | 1.415% |
| `CNC(=O)C1CCCN(c2cnc3ccccc3n2)C1` (stereo not given) | 7.766% |
| `CCOCC(=O)N(Cc1ccc(O)c(OC)c1)C1CC1` | 1.527% |
| `CCC(=O)n1nc(-c2ccco2)nc1N` | -4.194% |
| `CCn1cc(NC(=O)NCc2ccoc2)nn1` | 8.67% |
| `CC(Nc1cc(=O)n(C)c(=O)n1C)c1ccccc1` (stereo not given) | 25.76% |
| `CN(C)CC1CCN(CC(=O)N(C)CC(F)(F)F)CC1` | 7.479% |
| `COc1ccc(Cn2cnc(N)n2)cc1` | -0.8077% |
| `CC1(C)CCC(CO)NC1` (stereo not given) | 0.4621% |
| `O=C(CCc1ccco1)Nc1nnc[nH]1` | -9.774% |
| `OCc1cc2n(n1)CCCN(Cc1ccoc1)C2` | 7.344% |
| `Cc1cc(CNC(=O)C2CCCNCC2)n(C)n1` (stereo not given) | 5.721% |
| `CCOC(=O)CN(C)c1c(C)c(C)nc2ncnn12` | -6.771% |
| `COCC(C)NC(=O)CNc1ccccc1OC(F)F` (stereo not given) | 11.96% |
| `O=C(N[C@H]1COC[C@@H]1N1CCCCC1)c1cnc[nH]1` | -31.87% |
| `NC(=O)CCC(=O)Nc1ccc(F)cc1` | -7.706% |
| `CCc1ccc(CN(C)CCC(=O)NC2CC2)nc1` | -6.819% |
| `COCC1(C(=O)NC(Cn2ccnc2)C(C)(C)C)CC1` (stereo not given) | 9.35% |
| `CCOc1ccc(S(=O)(=O)NCCCO)cc1` | 3.48% |
| `N#CCSc1nc2c(cc1C#N)CCCC2` | 12.39% |
| `COc1cc(F)ccc1NC(=O)C1CCOCC1` | 8.833% |
| `COc1cccc(Cl)c1Cn1cc(Cl)c(=O)[nH]c1=O` | -29.5% |
| `Cc1ccccc1NC(=O)c1ncccn1` | 3.287% |
| `CC1CN(c2cccc3cnccc23)CCN1` (stereo not given) | 28.85% |
| `Cc1csc(CCNC(=O)C2CCCO2)n1` (stereo not given) | -10.38% |
| `Nc1nnc2n1CCCC2` | -9.527% |
| `COc1cccc2c1C(N)CO2` (stereo not given) | -16.35% |
| `CCCc1nc(C(=O)NCC2(O)CCCNCC2)cs1` (stereo not given) | 2.867% |
| `CN(C)C(=O)CN(C)S(=O)(=O)Cc1c(Cl)cccc1Cl` | -1.451% |
| `COCCn1ccnc1CN1C[C@H]2CNC[C@H]2C1` | -9.053% |
| `O=C(NCC1CCN(C2CC2)C1)Nc1nccs1` (stereo not given) | 10.57% |
| `O=C(CNCC1CC1)Nc1ccccc1` | 9.95% |
| `CC1CCN(CC(=O)NC(C)(C#N)C2CC2)CC1` (stereo not given) | -2.228% |

7 of the entries, repeated:

- OCc1cc2n(n1)CCCN(Cc1ccoc1)C2 : 7.344%
- CC(C)CNC(=O)CC1Nc2ccccc2NC1=O (stereo not given) : 16.46%
- CC(C)n1ccnc1CN(C)CC(C)(C)S(C)(=O)=O : 5.716%
- COCCn1ccnc1CN1C[C@H]2CNC[C@H]2C1 : -9.053%
- CC1CN(c2cccc3cnccc23)CCN1 (stereo not given) : 28.85%
- O=C(CNCC1CC1)Nc1ccccc1 : 9.95%
- CCOc1ccc(S(=O)(=O)NCCCO)cc1 : 3.48%

Data taken from ChEMBL document CHEMBL3988442, “University of Dundee, Small-Polar-MMV Screening Library” (2021).